Laboratory results as given in article PMC8793873.
Results are given in words; binding and its absence hold for the method and conditions named. Binding seen in cells or lysates may run through a third protein. These calls come from enrichment with a bait or labelling near it, and not all partners need be listed.

Protein sequences, listed by entry. Tags and fused reporters are not part of them. Lines headed by an entry give the natural chain unless they say otherwise; changes in a name come on top.
UniProt Q9FVR6: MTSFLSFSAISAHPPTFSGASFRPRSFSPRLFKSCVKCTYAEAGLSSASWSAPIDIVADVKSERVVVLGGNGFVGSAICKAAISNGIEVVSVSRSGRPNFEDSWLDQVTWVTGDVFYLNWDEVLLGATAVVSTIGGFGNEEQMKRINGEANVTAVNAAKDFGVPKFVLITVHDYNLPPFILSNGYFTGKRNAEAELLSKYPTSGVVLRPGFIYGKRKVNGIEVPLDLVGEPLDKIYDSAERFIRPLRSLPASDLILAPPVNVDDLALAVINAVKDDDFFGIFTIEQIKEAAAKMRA
UniProt Q9LW26: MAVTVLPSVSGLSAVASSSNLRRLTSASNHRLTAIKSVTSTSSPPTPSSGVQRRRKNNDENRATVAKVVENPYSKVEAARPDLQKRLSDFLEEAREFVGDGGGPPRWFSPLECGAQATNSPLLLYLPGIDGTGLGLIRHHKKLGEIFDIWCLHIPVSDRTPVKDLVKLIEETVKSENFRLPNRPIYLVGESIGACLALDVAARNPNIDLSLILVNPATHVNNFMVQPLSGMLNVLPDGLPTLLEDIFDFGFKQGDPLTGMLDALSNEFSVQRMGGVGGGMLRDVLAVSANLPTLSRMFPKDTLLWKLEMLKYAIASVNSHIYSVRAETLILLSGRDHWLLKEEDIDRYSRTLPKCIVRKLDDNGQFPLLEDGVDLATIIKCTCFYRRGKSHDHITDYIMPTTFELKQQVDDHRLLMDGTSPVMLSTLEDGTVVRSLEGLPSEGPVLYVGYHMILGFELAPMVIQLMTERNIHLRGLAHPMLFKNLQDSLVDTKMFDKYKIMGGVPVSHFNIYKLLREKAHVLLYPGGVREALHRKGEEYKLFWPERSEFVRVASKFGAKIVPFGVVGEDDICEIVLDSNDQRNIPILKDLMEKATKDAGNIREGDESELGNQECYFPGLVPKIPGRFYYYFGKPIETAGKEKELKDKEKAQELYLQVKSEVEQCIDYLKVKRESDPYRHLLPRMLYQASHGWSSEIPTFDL

B1: Fructose bisphosphate aldolase 2 (enzyme, UniProt Q944G9 47-398)
chain: AASSYADELVKTAKTIASPGRGILAMDESNATCGKRLDSIGLENTEANRQAFRTLLVSAPGLGQYVSGAILFEETLYQSTTEGKKMVDVLVEQNIVPGIKVDKGLVPLVGSNNESWCQGLDGLSSRTAAYYQQGARFAKWRTVVSIPNGPSALAVKEAAWGLARYAAISQDSGLVPIVEPEILLDGEHDIDRTYDVAEKVWAEVFFYLAQNNVMFEGILLKPSMVTPGAESKDRATPEQVAAYTLKLLRNRVPPAVPGIMFLSGGQSEVEATLNLNAMNQAPNPWHVSFSYARALQNTCLKTWGGRPENVNAAQTTLLARAKANSLAQLGKYTGEGESEEAKEGMFVKGYTY
B2: Fructose bisphosphate aldolase 1 (enzyme, UniProt Q9SJU4 49-399)
chain: ASAYADELVKTAKTIASPGHGIMAMDESNATCGKRLASIGLENTEANRQAYRTLLVSAPGLGQYISGAILFEETLYQSTTDGKKMVDVLVEQNIVPGIKVDKGLVPLVGSYDESWCQGLDGLASRTAAYYQQGARFAKWRTVVSIPNGPSALAVKEAAWGLARYAAISQDSGLVPIVEPEIMLDGEHGIDRTYDVAEKVWAEVFFYLAQNNVMFEGILLKPSMVTPGAEATDRATPEQVASYTLKLLRNRIPPAVPGIMFLSGGQSELEATLNLNAMNQAPNPWHVSFSYARALQNTCLKTWGGKEENVKAAQDILLARAKANSLAQLGKYTGEGESEEAKEGMFVKGYTY
B3: Ferredoxin-NADP[H]-oxidoreductase 2 (FNR2) (enzyme, UniProt Q8W493 58-369)
chain: ITTETDTPTPAKKVEKVSKKNEEGVIVNRYRPKEPYTGKCLLNTKITADDAPGETWHMVFSHQGEIPYREGQSVGVIADGIDKNGKPHKVRLYSIASSALGDLGNSETVSLCVKRLVYTNDQGETVKGVCSNFLCDLAPGSDVKLTGPVGKEMLMPKDPNATVIMLATGTGIAPFRSFLWKMFFEKHDDYKFNGLAWLFLGVPTTSSLLYQEEFDKMKAKAPENFRVDYAISREQANDKGEKMYIQTRMAQYAAELWELLKKDNTFVYMCGLKGMEKGIDDIMVSLAANDGIDWFDYKKQLKKAEQWNVEVY
B4: Allene oxide synthase (AOS) (enzyme, UniProt Q96242 34-518)
chain: SGSETPDLTVATRTGSKDLPIRNIPGNYGLPIVGPIKDRWDYFYDQGAEEFFKSRIRKYNSTVYRVNMPPGAFIAENPQVVALLDGKSFPVLFDVDKVEKKDLFTGTYMPSTELTGGYRILSYLDPSEPKHEKLKNLLFFLLKSSRNRIFPEFQATYSELFDSLEKELSLKGKADFGGSSDGTAFNFLARAFYGTNPADTKLKADAPGLITKWVLFNLHPLLSIGLPRVIEEPLIHTFSLPPALVKSDYQRLYEFFLESAGEILVEADKLGISREEATHNLLFATCFNTWGGMKILFPNMVKRIGRAGHQVHNRLAEEIRSVIKSNGGELTMGAIEKMELTKSVVYECLRFEPPVTAQYGRAKKDLVIESHDAAFKVKAGEMLYGYQPLATRDPKIFDRADEFVPERFVGEEGEKLLRHVLWSNGPETETPTVGNKQCAGKDFVVLVARLFVIEIFRRYDSFDIEVGTSPLGSSVNFSSLRKASF
B5: NAD(P)-binding Rossmann-fold superfamily protein (At4g35250) (protein, UniProt O65502 65-395)
chain: SAAAVNLAPGTPVRPTSILVVGATGTLGRQIVRRALDEGYDVRCLVRPRPAPADFLRDWGATVVNADLSKPETIPATLVGIHTVIDCATGRPEEPIKTVDWEGKVALIQCAKAMGIQKYVFYSIHNCDKHPEVPLMEIKYCTEKFLQESGLNHITIRLCGFMQGLIGQYAVPILEEKSVWGTDAPTRVAYMDTQDIARLTLIALRNEKINGKLLTFAGPRAWTTQEVITLCERLAGQDANVTTVPVSVLRVTRQLTRFFQWTNDVADRLAFSEVLSSDTVFSAPMTETNSLLGVDQKDMVTLEKYLQDYFSNILKKLKDLKAQSKQSDIYF
B6: 9-cis-epoxycarotenoid dioxygenase 4 (CCD4) (enzyme, UniProt O49675 35-595)
chain: SAVVEERSPITNPSDNNDRRNKPKTLHNRTNHTLVSSPPKLRPEMTLATALFTTVEDVINTFIDPPSRPSVDPKHVLSDNFAPVLDELPPTDCEIIHGTLPLSLNGAYIRNGPNPQFLPRGPYHLFDGDGMLHAIKIHNGKATLCSRYVKTYKYNVEKQTGAPVMPNVFSGFNGVTASVARGALTAARVLTGQYNPVNGIGLANTSLAFFSNRLFALGESDLPYAVRLTESGDIETIGRYDFDGKLAMSMTAHPKTDPITGETFAFRYGPVPPFLTYFRFDSAGKKQRDVPIFSMTSPSFLHDFAITKRHAIFAEIQLGMRMNMLDLVLEGGSPVGTDNGKTPRLGVIPKYAGDESEMKWFEVPGFNIIHAINAWDEDDGNSVVLIAPNIMSIEHTLERMDLVHALVEKVKIDLVTGIVRRHPISARNLDFAVINPAFLGRCSRYVYAAIGDPMPKISGVVKLDVSKGDRDDCTVARRMYGSGCYGGEPFFVARDPGNPEAEEDDGYVVTYVHDEVTGESKFLVMDAKSPELEIVAAVRLPRRVPYGFHGLFVKESDLNKL
B7: NAD(P)H dehydrogenase C1 (enzyme, UniProt Q8GXR9 53-519)
chain: AVTNNSGTTEISDNETAPRTYSWPDNKRPRVCILGGGFGGLYTALRLESLVWPEDKKPQVVLVDQSERFVFKPMLYELLSGEVDVWEIAPRFSDLLTNTGIQFLRDRVKTLLPCDHLGVNGSEISVTGGTVLLESGFKIEYDWLVLALGAESKLDVVPGAMELAFPFYTLEDAIRVNEKLSKLERKNFKDGSAIKVAVVGCGYAGVELAATISERLQDRGIVQSINVSKNILTSAPDGNREAAMKVLTSRKVQLLLGYLVQSIKRASNLEEDEGYFLELQPAERGLESQIIEADIVLWTVGAKPLLTKLEPSGPNVLPLNARGQAETDETLRVKGHPRIFALGDSSSLRDSNGKILPTTAQVAFQEADFTGWNIWAAINNRPLLPFRFQNLGEMMTLGRYDAAISPSFIEGLTLEGPIGHAARKLAYLIRLPTDEHRFKVGISWFAKSAVDSIALLQSNLTKVLSGS
B8: Fibrillin 1a (FBN1a) (protein, UniProt O81439 56-318)
chain: ATDIDDEWGQDGVERVFASSSTVSVADKAIESVEETERLKRSLADSLYGTDRGLSVSSDTRAEISELITQLESKNPTPAPNEALFLLNGKWILAYTSFVGLFPLLSRRIEPLVKVDEISQTIDSDSFTVQNSVRFAGPFSTTSFSTNAKFEIRSPKRVQIKFEQGVIGTPQLTDSIEIPESVEVLGQKIDLNPIKGLLTSVQDTASSVARTISNQPPLKFSLPSDNTQSWLLTTYLDKDLRISRGDGGSVYVLIKEGSSLLNP
B9: NAD(P)H-quinone oxidoreductase subunit S (NdhS) (protein, UniProt Q9T0A4 49-250)
chain: AMGKFNLWEVMGGRGLCNGEKGIEKELQRNIEDEQETSKAENNETERESDDSNLSFKVPEDGFEKEMMGLTGGFPGGEKGLKTFIEKNPPPPPPPPPAKQGSDASAVATDKKPKAPKLPLLMPGMIAIVKNQNSPYHMYCGIVQRITDGKAGVLFEGGNWDRLITFRLEELERREKGPPGKNPKSCILEPLIEQMQKEEAAP
B10: NAD(P)-binding Rossmann-fold superfamily protein (Tic62) (protein, UniProt Q8H0U5 64-641)
chain: ASSVVTEASPTNLNSKEEDLVFVAGATGKVGSRTVRELLKLGFRVRAGVRSAQRAGSLVQSVKEMKLQNTDEGTQPVEKLEIVECDLEKKDSIQPALGNASVIICCIGASEKEISDITGPYRIDYLATKNLVDAATSAKVNNFILVTSLGTNKFGFPAAILNLFWGVLCWKRKAEEALIESGLNYAIVRPGGMERPTDAYKETHNLTLALDDTLFGGQVSNLQVAELLACMAKNPQLSFSKIVEVVAETTAPLTPIEKLLEKIPSKRPYVPPPKASVATKEVKPVPTKPVTQEPTAPKEDEAPPKEKNVKPRPLSPYASYEDLKPPTSPIPNSTTSVSPAKSKEVDATQVPVEANVVPVPDSTSNVPVVEVKQVEEKKERPLSPYARYENLKPPSSPSPTASSTRKSDSLSPGPTDSDTDKSSTVAKTVTETAVATSVTETSVATSVPETAVATSVTETAAPATSKMRPLSPYAIYADLKPPTSPTPASTGPKEAASVEDNSELPGGNNDVLKTVDGNLNTIPPSTPEAVPVVSSAIDTSLASGDNTAQPKPRPLSPYTMYADMKPPTSPLPSPVTNH

Molecular target: T1, Fibrillin 2 (FBN2) (Arabidopsis thaliana (endogenous in leaves)) (UniProt O82291)
T1 sequence: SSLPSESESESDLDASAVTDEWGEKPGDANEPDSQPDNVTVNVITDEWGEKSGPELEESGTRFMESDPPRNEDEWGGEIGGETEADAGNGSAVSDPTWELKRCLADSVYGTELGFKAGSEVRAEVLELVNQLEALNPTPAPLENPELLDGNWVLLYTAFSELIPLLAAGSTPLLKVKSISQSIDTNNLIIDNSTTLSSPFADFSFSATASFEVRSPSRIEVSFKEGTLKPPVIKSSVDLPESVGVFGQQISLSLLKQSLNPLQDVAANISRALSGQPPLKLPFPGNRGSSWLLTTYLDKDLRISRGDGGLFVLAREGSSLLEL
Test: affinity purification with mass spectrometry; Co-IP of endogenous FBN2 with the polyclonal anti-FBN2 antibody from the soluble (stroma) fraction of Arabidopsis chloroplasts; LC-MS/MS; fbn2 mutant as control

binding, binds:
B1
B2

Molecular target: T1, Fibrillin 2 (FBN2) (Arabidopsis thaliana (endogenous in leaves))
Test: affinity purification with mass spectrometry; Co-IP of endogenous FBN2 with a polyclonal anti-FBN2 antibody (Dynabeads Co-Immunoprecipitation Kit) from Arabidopsis thylakoid membranes extracted with 0.01% Triton X-100 in 100 mM phosphate buffer pH 7; LC-MS/MS; proteins also found with fbn2 mutant extracts removed; three independent experiments

binding, binds:
Acclimation of photosynthesis to environment (APE1)
Flavin-reductase-related 1 (from UniProt Q9FVR6)
Diacylglycerol acyltransferase 4 (DGAT4) (from UniProt Q9LW26) (enzyme)
B3
B4
B5
B6
B7
B8
B9
B1
B10
B2
